Data source: PubChem BioAssay AID504774 (Drosophila RNAi Screening Center, 2011)
The deposit covers about 23,000 reagents; below is a random part of those that have a named target and a result. 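Values are quantile-normalised luminescence on an arbitrary scale; higher means more cells surviving MMS.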 Reagents against one gene are numbered here. Names joined by + are all predicted targets of the reagent. Further read-outs or replicates are left out here. Reagent sequences are not shown.

- Aim: 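Knock-downs that shift viability of MMS-exposed cells relative to untreated ones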 (primary screen)
- Cell system: Drosophila Kc167 cells
- Knock-down reagent: long dsRNA against Drosophila genes, about 0.25 µg dsRNA per well
- Duration: about 6 days: 3 days knock-down, then 3 days with or without MMS
- Challenge: methyl methanesulphonate 0.004% (w/v) for 3 days after knock-down
- Detection: 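ATP-dependent luminescence as a measure of live cells in MMS-exposed wells, quantile normalised within each plate, with replicate values also given as a mean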
- Scale: mean viability with MMS and viability with MMS: higher = more surviving cells after MMS

The opening 5 entries, ahead of the listing:
target | reagent | mean viability with MMS | viability with MMS, replicate 1
et | 1 | 3.45e6 | 3.92e6
Ugt302C1 | 1 | 3.44e6 | 3.88e6
CG13876 | 1 | 3.61e6 | 4.14e6
CG42355 | 1 | 3.65e6 | 4.13e6
GXIVsPLA2 | 1 | 3.60e6 | 4.11e6

The listing, from the first entry:
target | reagent | mean viability with MMS | viability with MMS, replicate 1
et | 1 | 3.45e6 | 3.92e6
Ugt302C1 | 1 | 3.44e6 | 3.88e6
CG13876 | 1 | 3.61e6 | 4.14e6
CG42355 | 1 | 3.65e6 | 4.13e6
GXIVsPLA2 | 1 | 3.60e6 | 4.11e6
CG15332 | 1 | 3.69e6 | 4.27e6
Dyrk2 | 1 | 3.47e6 | 3.92e6
CG32022 | 1 | 3.48e6 | 4.01e6
Cwc25 | 1 | 3.24e6 | 3.66e6
CG14632 (retired record) | 1 | 3.64e6 | 4.24e6
drongo | 1 | 3.44e6 | 3.78e6
CG4752 | 1 | 3.39e6 | 3.76e6
sloth2 + sloth1 | 1 | 3.49e6 | 3.94e6
sloth2 + sloth1 | 2 | 3.50e6 | 4.04e6
dpr9 | 1 | 3.77e6 | 4.22e6
dpr9 | 2 | 3.60e6 | 4.37e6
dpr9 | 3 | 3.63e6 | 4.12e6
CG9928 | 1 | 3.53e6 | 3.99e6
BEAF-32 + CG42254 (retired record) | 1 | 3.78e6 | 4.32e6
CG9072 | 1 | 3.49e6 | 3.96e6
Rip11 | 1 | 3.54e6 | 4.11e6
Rubicon | 1 | 3.47e6 | 3.93e6
Cyp6d2 | 1 | 3.74e6 | 4.08e6
CG33203 | 1 | 3.33e6 | 3.71e6
CG33203 | 2 | 3.64e6 | 4.10e6
CG33203 | 3 | 3.62e6 | 3.93e6
fu | 1 | 3.26e6 | 3.74e6
GCC88 | 1 | 3.67e6 | 4.17e6
crim | 1 | 3.57e6 | 4.04e6
ChLD3 | 1 | 3.42e6 | 3.83e6
CG13457 | 1 | 3.73e6 | 4.07e6
Gr8a | 1 | 3.51e6 | 4.01e6
TTLL15 | 1 | 3.37e6 | 3.84e6
CG18371 | 1 | 3.49e6 | 3.99e6
YL-1 | 1 | 3.59e6 | 4.28e6
CG13999 | 1 | 3.63e6 | 4.08e6
PIG-S | 1 | 3.42e6 | 3.93e6
PIG-S | 2 | 3.72e6 | 4.18e6
PIG-S | 3 | 3.72e6 | 4.15e6
CG4239 | 1 | 3.49e6 | 4.23e6
CG13731 | 1 | 3.50e6 | 3.96e6
fat-spondin | 1 | 4.03e6 | 4.67e6
kon | 1 | 3.48e6 | 3.82e6
Acsx3 | 1 | 3.51e6 | 3.99e6
CG3829 | 1 | 3.60e6 | 4.16e6
Wdr33 | 1 | 3.46e6 | 3.94e6
